The target in data set [1] is T1, Redβ single strand annealing protein (bacteriophage λ) (UniProt P03698).
T1 sequence: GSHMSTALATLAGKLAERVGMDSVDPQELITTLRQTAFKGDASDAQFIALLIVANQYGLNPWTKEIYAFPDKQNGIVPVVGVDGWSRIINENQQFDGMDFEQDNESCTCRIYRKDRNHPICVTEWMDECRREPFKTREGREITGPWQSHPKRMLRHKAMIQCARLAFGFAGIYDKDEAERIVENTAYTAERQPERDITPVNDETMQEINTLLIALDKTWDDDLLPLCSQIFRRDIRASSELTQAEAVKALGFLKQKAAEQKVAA
The data set is described as follows: native MS. The note with it: SEC-MALS: PBS, complexes formed at 22 C, AUC: PBS 20 C, native MS: 50 mM ammonium acetate pH ~7, room temperature, 4 nt/monomer, recombinant protein.

Data set [2] addresses T1, Redβ single strand annealing protein (bacteriophage λ). The data set is described as follows: EMSA. To be noted: EMSA: 10 uM Redβ, 50 uM nt DNA, 37 C, recombinant protein. On the technique in general: A gel shift assay detects complexes by their altered migration in electrophoresis.

A negative result means that nothing was seen under these conditions. Where a protein sequence is shown, tags need not be part of it. A weaker result is weaker than the reference pair of the same experiment. For part of these data: The exact form of at least one protein or probe is not confirmed. For part of these data: At least one verdict was read from the data and is not stated in words by the source.

For the sequence “TTTTTTTTTTTTTTTTTTTTTTTTTTTTTTTTTTTTTT (double strand) [dT38:dA38]”, the binding result in data set [1] (pre-formed dsDNA, 1 uM Redβ, very small amount of 11-mer complex) was “binds more weakly”.

On to “TTGATAAGAGGTCATTTTTGCGGATGGCTTAGAGCTTAATTGCTGAATCTGGTGCTGTAGCTCAACATGTTTTAAATATGCAA [83+]”, for which the binding result in data set [1] (1 uM Redβ, single-stranded DNA) is “binds”.

“AAAATCGAGCTATGCA (double strand) [16mer annealed duplex]”: the binding result in data set [2] (strands added sequentially, PBS, only faint complex, in PBS, or 20 mM Tris-HCl pH 7.5/10 mM NaCl/10 mM MgCl2, or 50 mM ammonium acetate pH 7.0, label: 5'-Cy5, 5'-Cy3) is recorded as “binds more weakly”.

With “TTGCATATTTAAAACATGTTGAGCTACAGCACCAGATTCAGCAATTAAGCTCTAAGCCATCCGCAAAAATGACCTCTTATCAA / TTGATAAGAGGTCATTTTTGCGGATGGCTTAGAGCTTAATTGCTGAATCTGGTGCTGTAGCTCAACATGTTTTAAATATGCAATGAC [83-:87+]”, the binding result in data set [1] (pre-formed dsDNA, 1 uM Redβ) is given as “no binding”.

As to “CCATCCGCAAAAATCGAGCTATGCAGGGCGATTCTGCTCTAAGCCATCCG / GCGGATGGCTTAGAGCAGAATCGCCCTGCATAGCTCGATTTTTGCGGATG [Cy5 50mer:Cy3 50mer (annealed sequentially or pre-formed)]”, the binding result in data set [2] (pre-annealed before adding Redβ, in PBS, or 20 mM Tris-HCl pH 7.5/10 mM NaCl/10 mM MgCl2, or 50 mM ammonium acetate pH …, label: 5'-Cy5 on strand 1, 5'-Cy3 on strand 2) was “no binding”.

On to “AAAAAAAAAAAAAAAAAAAAAAAAAAAAAAAAAAAAAA [dA38]”, for which the binding result in data set [1] (0.1 uM Redβ, single-stranded DNA) is “no binding”.

(Values after paper PMC8034648, “Oligomeric complexes formed by Redβ single strand annealing protein in its different DNA bound states”.)
